This note sets out measurements from PubChem BioAssay AID694 (Emory University Molecular Libraries Screening Center, 2007).

Chains of the proteins cited; added tags and fusions are not shown.
UniProt P03372, whole entry: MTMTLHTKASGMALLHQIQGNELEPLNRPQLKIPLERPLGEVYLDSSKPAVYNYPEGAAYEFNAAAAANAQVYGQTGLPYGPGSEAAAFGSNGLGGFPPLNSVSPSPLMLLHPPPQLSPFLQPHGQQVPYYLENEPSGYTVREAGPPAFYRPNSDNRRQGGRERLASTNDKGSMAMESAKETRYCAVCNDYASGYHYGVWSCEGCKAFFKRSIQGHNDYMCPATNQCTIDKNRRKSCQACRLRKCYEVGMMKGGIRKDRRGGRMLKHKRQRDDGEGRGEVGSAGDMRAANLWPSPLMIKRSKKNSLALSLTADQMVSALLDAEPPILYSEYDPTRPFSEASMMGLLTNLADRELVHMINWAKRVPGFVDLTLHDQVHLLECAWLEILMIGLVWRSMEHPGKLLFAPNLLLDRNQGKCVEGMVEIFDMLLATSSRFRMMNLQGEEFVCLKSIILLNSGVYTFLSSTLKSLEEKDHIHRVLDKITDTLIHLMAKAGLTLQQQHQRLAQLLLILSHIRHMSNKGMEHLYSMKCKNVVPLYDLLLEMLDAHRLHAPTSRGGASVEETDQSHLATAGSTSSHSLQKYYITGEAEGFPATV

Several values for one entry are separate records, joined by “and”; a condition that tells them apart may be missing. Identical values can stand only once. The list shows a part of the results.

The assay has as its target Estrogen receptor (Homo sapiens) (UniProt P03372). Kind of assay: ERα coactivator peptide binding inhibitors, primary screen, biochemical, LOPAC library, TR-FRET (AID 694).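 Note: receptor was agonist-bound with estradiol present during the assay.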 The note with it: TR-FRET ERalpha-coactivator peptide binding, at 15 µM, stronger effect = higher value.
As to `CN(C(=O)Cc1ccccc1)[C@@H]1CC[C@]2(CCCO2)C[C@H]1N1CCCC1`, the inhibition is -0.81%. For `CN(C(=O)Cc1ccc(Cl)c(Cl)c1)[C@@H]1CC[C@]2(CCCO2)C[C@H]1N1CCCC1` the value was -0.75%.

In the case of `CN(C(=O)Cc1ccc(Cl)c(Cl)c1)[C@@H]1CCCC[C@H]1N1CCCC1`, the inhibition was 2.44%. Take `CN(CCCl)Cc1cc(Cl)c(NC2=NCCN2)c(Cl)c1`: the inhibition came to 2.07%. For `CC(Cc1ccc(O)cc1)NCC(O)c1cc(O)cc(O)c1` (configuration not stated) the value was 6.47%. For `CN(C(=O)Cc1ccc(Cl)c(Cl)c1)[C@H]1CCCC[C@@H]1N1CCCC1` the value was -3.57% and 1.15%. As for `CN(C(=O)Cc1ccc(Cl)c(Cl)c1)[C@@H]1CCCC[C@@H]1N1CCCC1`, the figure is -5.72%.
